Test results published in paper PMC8052345.
Results are given in words; binding and its absence hold for the method and conditions named. In cells and extracts the contact can be indirect. Where a sequence is shown, tags or fusion partners need not be part of it.

Amino acid sequences for entries named in this document (tags omitted).
UniProt Q07812: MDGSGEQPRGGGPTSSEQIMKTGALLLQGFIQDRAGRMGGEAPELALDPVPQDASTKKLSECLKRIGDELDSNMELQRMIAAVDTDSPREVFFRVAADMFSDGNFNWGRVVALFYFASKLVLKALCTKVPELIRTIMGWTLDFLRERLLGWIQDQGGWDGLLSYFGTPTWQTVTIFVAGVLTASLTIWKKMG

Biological target: T1, Flag-tagged dual-specificity phosphatase 16 (DUSP16) (human) (UniProt Q9BY84)
T1 sequence: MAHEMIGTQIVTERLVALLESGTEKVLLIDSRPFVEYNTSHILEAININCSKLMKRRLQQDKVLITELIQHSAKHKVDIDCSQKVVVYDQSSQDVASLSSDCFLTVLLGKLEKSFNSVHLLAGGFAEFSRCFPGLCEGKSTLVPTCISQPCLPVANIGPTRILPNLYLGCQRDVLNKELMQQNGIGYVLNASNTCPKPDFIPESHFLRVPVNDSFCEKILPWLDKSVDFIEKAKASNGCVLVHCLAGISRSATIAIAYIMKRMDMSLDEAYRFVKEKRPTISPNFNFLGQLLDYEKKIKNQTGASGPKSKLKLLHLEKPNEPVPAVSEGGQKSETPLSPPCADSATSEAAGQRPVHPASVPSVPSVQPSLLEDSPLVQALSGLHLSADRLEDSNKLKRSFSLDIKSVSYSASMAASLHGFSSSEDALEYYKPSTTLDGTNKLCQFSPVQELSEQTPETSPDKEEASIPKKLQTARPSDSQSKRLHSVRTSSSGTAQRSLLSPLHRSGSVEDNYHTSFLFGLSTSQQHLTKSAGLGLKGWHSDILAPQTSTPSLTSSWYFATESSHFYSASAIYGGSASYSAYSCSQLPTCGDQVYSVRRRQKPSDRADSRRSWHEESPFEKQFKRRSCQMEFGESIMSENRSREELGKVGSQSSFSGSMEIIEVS
Test: co-IP; Flag-tagged DUSP16 expression plasmid transfected into HEK293 T cells; DUSP16 immunoprecipitated; endogenous JNK, p38 and BAX examined in the precipitate

binding: no binding
Substance: BAX, endogenous (from UniProt Q07812 1-192)
